Source: paper PMC11260364
Results are given in words; binding and its absence hold for the method and conditions named. Binding seen in cells or lysates may run through a third protein. Some binding calls cover weakened binding; strength is not graded here. For some assays here: Sequences can lack the tags named with a protein.

T1: Ephrin-B1 (UniProt P98172)
T1 sequence: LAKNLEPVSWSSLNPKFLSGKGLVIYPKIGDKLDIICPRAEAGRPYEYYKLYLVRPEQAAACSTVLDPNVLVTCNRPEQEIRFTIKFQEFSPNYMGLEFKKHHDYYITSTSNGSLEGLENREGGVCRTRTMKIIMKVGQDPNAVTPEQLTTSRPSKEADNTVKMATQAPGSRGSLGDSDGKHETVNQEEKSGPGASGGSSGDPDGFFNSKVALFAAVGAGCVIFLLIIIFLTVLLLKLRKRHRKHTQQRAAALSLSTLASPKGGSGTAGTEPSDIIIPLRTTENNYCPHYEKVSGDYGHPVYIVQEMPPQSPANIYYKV

T2: WT-Eprhin-B1 (wild type) (UniProt P98172)
T2 sequence: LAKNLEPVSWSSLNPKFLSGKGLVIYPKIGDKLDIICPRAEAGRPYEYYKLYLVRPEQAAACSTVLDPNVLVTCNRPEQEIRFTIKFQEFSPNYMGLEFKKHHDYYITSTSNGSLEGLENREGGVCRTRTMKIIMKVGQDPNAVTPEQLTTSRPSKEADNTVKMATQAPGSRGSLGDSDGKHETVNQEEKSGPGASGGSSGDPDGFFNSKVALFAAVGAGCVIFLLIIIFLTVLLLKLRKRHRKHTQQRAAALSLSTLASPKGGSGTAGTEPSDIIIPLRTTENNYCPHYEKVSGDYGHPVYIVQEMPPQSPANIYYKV


Columns and labels:
Ephrin-B1 = target: T1, Ephrin-B1; assay: co-IP; co-immunoprecipitation of ZIP4 and Ephrin-B1 (Fig. 1C); cells, antibodies and conditions not told in the text shown
WT-Eprhin-B1 (wild type) = target: T2, WT-Eprhin-B1 (wild type); assay: co-IP; HEK293T cells co-transfected with Flag-tagged ZIP4 and WT or deletion mutants of Ephrin-B1; lysates immunoprecipitated with HA antibody; immunoblotted with HA or Flag antibodies

| binding (Ephrin-B1) | binding (WT-Eprhin-B1 (wild type)) | Binder |
| --- | --- | --- |
| binds |  | Zrt-/Irt-like protein 4 (ZIP4) (protein, UniProt Q6P5W5 23-647) SPPAGLLSLLTSGQGALDQEALGGLLNTLADRVHCANGPCGKCLSVEDALGLGEPEGSGLPPGPVLEARYVARLSAAAVLYLSNPEGTCEDARAGLWASHADHLLALLESPKALTPGLSWLLQRMQARAAGQTPKMACVDIPQLLEEAVGAGAPGSAGGVLAALLDHVRSGSCFHALPSPQYFVDFVFQQHSSEVPMTLAELSALMQRLGVGREAHSDHSHRHRGASSRDPVPLISSSNSSSVWDTVCLSARDVMAAYGLSEQAGVTPEAWAQLSPALLQQQLSGACTSQSRPPVQDQLSQSERYLYGSLATLLICLCAVFGLLLLTCTGCRGVTHYILQTFLSLAVGAVTGDAVLHLTPKVLGLHTHSEEGLSPQPTWRLLAMLAGLYAFFLFENLFNLLLPRDPEDLEDGPCGHSSHSHGGHSHGVSLQLAPSELRQPKPPHEGSRADLVAEESPELLNPEPRRLSPELRLLPYMITLGDAVHNFADGLAVGAAFASSWKTGLATSLAVFCHELPHELGDFAALLHAGLSVRQALLLNLASALTAFAGLYVALAVGVSEESEAWILAVATGLFLYVALCDMLPAMLKVRDPRPWLLFLLHNVGLLGGWTVLLLLSLYEDDITF |
|  | binds | Flag-tagged ZIP4 (SLC39A4) (protein, UniProt Q6P5W5 23-647) SPPAGLLSLLTSGQGALDQEALGGLLNTLADRVHCANGPCGKCLSVEDALGLGEPEGSGLPPGPVLEARYVARLSAAAVLYLSNPEGTCEDARAGLWASHADHLLALLESPKALTPGLSWLLQRMQARAAGQTPKMACVDIPQLLEEAVGAGAPGSAGGVLAALLDHVRSGSCFHALPSPQYFVDFVFQQHSSEVPMTLAELSALMQRLGVGREAHSDHSHRHRGASSRDPVPLISSSNSSSVWDTVCLSARDVMAAYGLSEQAGVTPEAWAQLSPALLQQQLSGACTSQSRPPVQDQLSQSERYLYGSLATLLICLCAVFGLLLLTCTGCRGVTHYILQTFLSLAVGAVTGDAVLHLTPKVLGLHTHSEEGLSPQPTWRLLAMLAGLYAFFLFENLFNLLLPRDPEDLEDGPCGHSSHSHGGHSHGVSLQLAPSELRQPKPPHEGSRADLVAEESPELLNPEPRRLSPELRLLPYMITLGDAVHNFADGLAVGAAFASSWKTGLATSLAVFCHELPHELGDFAALLHAGLSVRQALLLNLASALTAFAGLYVALAVGVSEESEAWILAVATGLFLYVALCDMLPAMLKVRDPRPWLLFLLHNVGLLGGWTVLLLLSLYEDDITF |
